The data set relates to trypsin. Briefly: Peptide trypsin digest (cleavage rate constants). The note with it: compared to the unmodified control peptide. The format is in vitro ADME. The method, then: Peptide trypsin digest: A typical peptide trypsin digest experiment was performed by adding 5 μL of a 20× trypsin solution in 1 mM HCl to a 100 μL solution of peptide at 9 μM in 10% EtOH in 50 mM Tris at pH 8.3. The reaction was allowed to proceed at room temperature for 30 min at which time it was quenched by adding 100 μL of a 1% trifluoroacetic acid solution and frozen on dry ice. The sample was then thawed and injected into a reverse phase HPLC on a C18 column for quantitation at 280 nm. The cleavage rate constants were obtained by performing the digest experiments at multiple trypsin concentrations and fitting to a kinetic model that is first order in both enzyme and substrate concentration.

On to “Ri,i+7S(11): Ac-EWAEyAAAKFLzAHA-NH2 (SEQ ID NO: 2), (y,z) = (R-13,S-16), 11 carbon crosslink”, for which the “stabilization toward trypsin digestion / decrease of cleavage rate versus unmodified control peptide” value worked out at 41 fold.

The values are drawn from US10487110B2, “Stabilized compounds having secondary structure motifs” (President and Fellows of Harvard College, priority 1999, dated 2019).
